{"source": "PubChem BioAssay AID1259254 | NCATS – 2017", "purpose": "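Genome-wide screen for genes that prevent DNA re-replication in cancer cells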 (primary screen)", "cell system": "human HCT116 colorectal cancer cells", "knock-down reagent": "single siRNA against human genes", "timing": "3 days", "detection": "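Imaged Hoechst DNA stain sorts each cell into a cycle phase by DNA amount; per plate, G2 fraction set to 0% for non-targeting and 100% for GMNN siRNA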", "direction": "G2 robust z-score and G2 cells, % of GMNN control: higher = more G2 cells, more excess DNA replication", "hit rule": "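Active siRNAs have a G2 robust z of 5 or more median absolute deviations over the median, which in these data means about 38% or higher of GMNN control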", "note": "The deposit covers about 59,000 reagents; below is a random part of them. About 1,550 of all reagents (2.6%) count as active. 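G2 share is only a proxy for re-replication; each gene was hit by three separate siRNAs, and active genes were retested.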 The numbers tell different reagents against one gene apart. Further read-outs or replicates are left out here. The record does not give: the amount of reagent."}
{"gene knocked down": "RAI14 (GeneID 26064)", "reagent": 1, "G2 robust z-score": 0.0957, "G2 cells, % of GMNN control": 3.64, "call": "inactive"}
{"gene knocked down": "RAI14 (GeneID 26064)", "reagent": 2, "G2 robust z-score": 1.3, "G2 cells, % of GMNN control": 12.1, "call": "inactive"}
{"gene knocked down": "RAI14 (GeneID 26064)", "reagent": 3, "G2 robust z-score": -1.03, "G2 cells, % of GMNN control": -4.31, "call": "inactive"}
{"gene knocked down": "OR52N4 (GeneID 390072)", "reagent": 1, "G2 robust z-score": -0.868, "G2 cells, % of GMNN control": -3.14, "call": "inactive"}
{"gene knocked down": "OR52N4 (GeneID 390072)", "reagent": 2, "G2 robust z-score": -0.471, "G2 cells, % of GMNN control": -0.349, "call": "inactive"}
{"gene knocked down": "OR52N4 (GeneID 390072)", "reagent": 3, "G2 robust z-score": -0.432, "G2 cells, % of GMNN control": -0.0693, "call": "inactive"}
{"gene knocked down": "ATP2B4 (GeneID 493)", "reagent": 1, "G2 robust z-score": -0.747, "G2 cells, % of GMNN control": -2.29, "call": "inactive"}
{"gene knocked down": "ATP2B4 (GeneID 493)", "reagent": 2, "G2 robust z-score": 1.99, "G2 cells, % of GMNN control": 17, "call": "inactive"}
{"gene knocked down": "ATP2B4 (GeneID 493)", "reagent": 3, "G2 robust z-score": 1.04, "G2 cells, % of GMNN control": 10.3, "call": "inactive"}
{"gene knocked down": "IL21R (GeneID 50615)", "reagent": 1, "G2 robust z-score": 0.641, "G2 cells, % of GMNN control": 7.48, "call": "inactive"}
{"gene knocked down": "IL21R (GeneID 50615)", "reagent": 2, "G2 robust z-score": 1.37, "G2 cells, % of GMNN control": 12.6, "call": "inactive"}
{"gene knocked down": "IL21R (GeneID 50615)", "reagent": 3, "G2 robust z-score": 1.08, "G2 cells, % of GMNN control": 10.5, "call": "inactive"}

Just “G2 robust z-score”, for 2 of the entries above:
OR52N4 (GeneID 390072) #2	-0.471
OR52N4 (GeneID 390072) #3	-0.432
